In PMC11574364:
For at least one entry, the source does not settle the construct or the ends of the probe. For some assays here: Protein sequences can lack the tags named with them.

Sequences of proteins named here, by UniProt entry; tags and fusion partners are left off. A change or cut given only in a name is not applied to a line headed by its entry.
UniProt Q8NDZ0: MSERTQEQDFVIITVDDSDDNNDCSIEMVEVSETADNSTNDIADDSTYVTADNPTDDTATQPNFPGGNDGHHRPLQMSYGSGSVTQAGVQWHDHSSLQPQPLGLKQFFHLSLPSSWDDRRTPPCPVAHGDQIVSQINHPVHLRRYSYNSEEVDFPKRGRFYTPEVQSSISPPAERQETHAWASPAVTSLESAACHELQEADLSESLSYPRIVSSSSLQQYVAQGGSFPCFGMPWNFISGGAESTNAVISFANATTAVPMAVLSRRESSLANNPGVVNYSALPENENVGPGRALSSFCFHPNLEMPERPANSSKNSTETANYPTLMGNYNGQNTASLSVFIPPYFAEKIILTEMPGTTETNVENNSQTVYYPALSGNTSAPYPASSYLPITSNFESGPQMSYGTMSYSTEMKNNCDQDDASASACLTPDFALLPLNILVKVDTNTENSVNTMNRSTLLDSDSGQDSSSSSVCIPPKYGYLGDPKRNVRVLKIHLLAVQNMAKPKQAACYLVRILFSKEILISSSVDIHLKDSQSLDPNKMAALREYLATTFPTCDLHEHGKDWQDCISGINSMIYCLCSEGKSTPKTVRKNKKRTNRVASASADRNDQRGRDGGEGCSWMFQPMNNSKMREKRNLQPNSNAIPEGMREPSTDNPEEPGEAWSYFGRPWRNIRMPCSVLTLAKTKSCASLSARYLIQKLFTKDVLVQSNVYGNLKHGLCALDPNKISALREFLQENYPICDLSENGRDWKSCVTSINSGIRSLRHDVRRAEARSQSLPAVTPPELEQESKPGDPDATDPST
UniProt Q8N6Q1: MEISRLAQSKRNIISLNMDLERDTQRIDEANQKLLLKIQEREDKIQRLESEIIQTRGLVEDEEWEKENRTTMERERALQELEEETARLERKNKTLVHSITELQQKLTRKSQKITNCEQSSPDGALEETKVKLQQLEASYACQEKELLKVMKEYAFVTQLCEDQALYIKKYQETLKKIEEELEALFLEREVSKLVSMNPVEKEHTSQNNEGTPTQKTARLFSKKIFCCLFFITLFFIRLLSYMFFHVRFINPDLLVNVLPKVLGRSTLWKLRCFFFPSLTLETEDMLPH
UniProt Q04609: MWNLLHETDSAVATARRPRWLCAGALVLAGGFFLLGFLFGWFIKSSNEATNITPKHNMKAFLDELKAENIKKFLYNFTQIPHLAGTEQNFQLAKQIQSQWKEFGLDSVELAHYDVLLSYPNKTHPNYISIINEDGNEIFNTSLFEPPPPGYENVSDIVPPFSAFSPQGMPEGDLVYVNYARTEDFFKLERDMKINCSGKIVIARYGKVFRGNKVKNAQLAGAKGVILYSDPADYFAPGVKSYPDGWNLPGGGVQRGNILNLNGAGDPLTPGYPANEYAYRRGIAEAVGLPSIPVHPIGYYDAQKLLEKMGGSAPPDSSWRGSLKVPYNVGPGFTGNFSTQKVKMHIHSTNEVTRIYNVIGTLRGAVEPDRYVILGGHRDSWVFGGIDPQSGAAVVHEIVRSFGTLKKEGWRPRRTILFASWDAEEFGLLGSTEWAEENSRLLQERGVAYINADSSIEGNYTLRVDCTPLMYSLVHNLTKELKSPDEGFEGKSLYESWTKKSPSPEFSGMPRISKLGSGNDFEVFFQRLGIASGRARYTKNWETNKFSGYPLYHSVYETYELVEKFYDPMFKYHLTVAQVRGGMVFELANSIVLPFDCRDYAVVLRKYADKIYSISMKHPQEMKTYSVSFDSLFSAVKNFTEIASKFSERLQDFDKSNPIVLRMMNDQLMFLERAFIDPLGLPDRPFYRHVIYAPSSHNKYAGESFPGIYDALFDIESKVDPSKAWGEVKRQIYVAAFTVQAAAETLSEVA
UniProt P62256: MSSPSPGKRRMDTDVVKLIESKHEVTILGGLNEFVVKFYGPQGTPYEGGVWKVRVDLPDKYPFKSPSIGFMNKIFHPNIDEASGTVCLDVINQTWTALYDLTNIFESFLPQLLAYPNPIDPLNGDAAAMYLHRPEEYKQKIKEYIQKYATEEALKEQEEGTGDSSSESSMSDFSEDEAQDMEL
UniProt P99999: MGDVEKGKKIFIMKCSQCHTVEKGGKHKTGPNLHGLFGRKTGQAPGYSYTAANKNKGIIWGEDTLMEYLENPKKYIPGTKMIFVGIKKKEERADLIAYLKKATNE
UniProt Q5MNZ6: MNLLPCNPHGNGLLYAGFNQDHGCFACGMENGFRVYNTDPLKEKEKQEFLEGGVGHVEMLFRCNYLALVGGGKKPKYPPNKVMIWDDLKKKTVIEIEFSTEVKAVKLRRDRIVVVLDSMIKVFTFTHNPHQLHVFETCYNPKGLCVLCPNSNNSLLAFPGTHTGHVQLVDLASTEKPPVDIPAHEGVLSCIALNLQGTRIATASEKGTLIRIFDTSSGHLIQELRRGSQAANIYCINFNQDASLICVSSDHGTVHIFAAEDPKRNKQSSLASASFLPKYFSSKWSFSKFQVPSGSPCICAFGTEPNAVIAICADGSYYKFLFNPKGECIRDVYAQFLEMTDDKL

Key:
Assay in all cases: human ORF protein microarray
KLHDC3 (Homo sapiens) = target: T1, KLHDC3 (Homo sapiens) (UniProt Q9BQ90); conditions: 5' phosphate; Domain array: 20 mM Tris-HCl pH 7.4, 200 mM KCl, 0.2 mM EDTA, 0.05% NP40, 2 ug/ul heparin, overnight 4 C. ORF array: PBS pH 7.0 with RNase inhibitor, 100 ng RNA, 1 h.; recombinant protein; protein details: N-terminal GST-6xHis; label: internal DY647 at G18; letters put together from the description
T1 sequence (looked up, limits assumed): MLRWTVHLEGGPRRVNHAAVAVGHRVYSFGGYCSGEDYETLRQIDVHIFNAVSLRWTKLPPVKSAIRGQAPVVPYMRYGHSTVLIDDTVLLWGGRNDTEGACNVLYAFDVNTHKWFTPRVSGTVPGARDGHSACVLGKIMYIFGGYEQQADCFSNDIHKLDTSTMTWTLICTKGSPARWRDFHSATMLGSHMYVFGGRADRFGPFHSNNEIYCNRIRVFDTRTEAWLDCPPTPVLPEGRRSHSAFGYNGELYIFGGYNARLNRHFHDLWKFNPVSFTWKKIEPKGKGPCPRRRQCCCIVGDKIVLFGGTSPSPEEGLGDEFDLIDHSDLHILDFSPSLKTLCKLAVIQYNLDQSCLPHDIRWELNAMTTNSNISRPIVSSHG

CXorf20 (Homo sapiens) = CXorf20 (Homo sapiens) (UniProt Q8NDZ0); conditions: 5' phosphate; Domain array: 20 mM Tris-HCl pH 7.4, 200 mM KCl, 0.2 mM EDTA, 0.05% NP40, 2 ug/ul heparin, overnight 4 C. ORF array: PBS pH 7.0 with RNase inhibitor, 100 ng RNA, 1 h.; recombinant protein; protein details: N-terminal GST-6xHis; label: internal DY647 at G18; letters put together from the description
CCNK (Homo sapiens) = target: T2, CCNK (Homo sapiens) (UniProt O75909); conditions: 5' phosphate; Domain array: 20 mM Tris-HCl pH 7.4, 200 mM KCl, 0.2 mM EDTA, 0.05% NP40, 2 ug/ul heparin, overnight 4 C. ORF array: PBS pH 7.0 with RNase inhibitor, 100 ng RNA, 1 h.; recombinant protein; protein details: N-terminal GST-6xHis; label: internal DY647 at G18; letters put together from the description
T2 sequence (looked up, limits assumed): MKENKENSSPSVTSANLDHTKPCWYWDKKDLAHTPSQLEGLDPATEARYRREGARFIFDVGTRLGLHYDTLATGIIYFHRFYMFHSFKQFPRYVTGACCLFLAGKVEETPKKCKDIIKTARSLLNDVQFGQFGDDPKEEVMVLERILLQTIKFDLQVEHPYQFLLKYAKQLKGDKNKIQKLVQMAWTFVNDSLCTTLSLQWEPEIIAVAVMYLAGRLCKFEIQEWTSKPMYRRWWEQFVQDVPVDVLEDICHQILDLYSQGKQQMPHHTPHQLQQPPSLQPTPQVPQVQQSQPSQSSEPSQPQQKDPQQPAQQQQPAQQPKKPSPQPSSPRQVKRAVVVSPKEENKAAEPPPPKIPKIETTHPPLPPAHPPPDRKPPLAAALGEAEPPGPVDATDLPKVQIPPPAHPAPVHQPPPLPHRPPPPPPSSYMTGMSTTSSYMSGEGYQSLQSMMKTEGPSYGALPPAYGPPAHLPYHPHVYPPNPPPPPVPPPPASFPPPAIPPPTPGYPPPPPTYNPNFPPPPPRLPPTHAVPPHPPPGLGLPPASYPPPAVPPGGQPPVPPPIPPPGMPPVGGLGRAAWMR

TMCO5 (Homo sapiens) = TMCO5 (Homo sapiens) (UniProt Q8N6Q1); conditions: 5' phosphate; Domain array: 20 mM Tris-HCl pH 7.4, 200 mM KCl, 0.2 mM EDTA, 0.05% NP40, 2 ug/ul heparin, overnight 4 C. ORF array: PBS pH 7.0 with RNase inhibitor, 100 ng RNA, 1 h.; recombinant protein; protein details: N-terminal GST-6xHis; label: internal DY647 at G18; letters put together from the description
FOLH1 (Homo sapiens) = FOLH1 (Homo sapiens) (UniProt Q04609); conditions: 5' phosphate; Domain array: 20 mM Tris-HCl pH 7.4, 200 mM KCl, 0.2 mM EDTA, 0.05% NP40, 2 ug/ul heparin, overnight 4 C. ORF array: PBS pH 7.0 with RNase inhibitor, 100 ng RNA, 1 h.; recombinant protein; protein details: N-terminal GST-6xHis; label: internal DY647 at G18; letters put together from the description
SPATA2L (Homo sapiens) = target: T3, SPATA2L (Homo sapiens) (UniProt Q8IUW3); conditions: 5' phosphate; Domain array: 20 mM Tris-HCl pH 7.4, 200 mM KCl, 0.2 mM EDTA, 0.05% NP40, 2 ug/ul heparin, overnight 4 C. ORF array: PBS pH 7.0 with RNase inhibitor, 100 ng RNA, 1 h.; recombinant protein; protein details: N-terminal GST-6xHis; label: internal DY647 at G18; letters put together from the description
T3 sequence (looked up, limits assumed): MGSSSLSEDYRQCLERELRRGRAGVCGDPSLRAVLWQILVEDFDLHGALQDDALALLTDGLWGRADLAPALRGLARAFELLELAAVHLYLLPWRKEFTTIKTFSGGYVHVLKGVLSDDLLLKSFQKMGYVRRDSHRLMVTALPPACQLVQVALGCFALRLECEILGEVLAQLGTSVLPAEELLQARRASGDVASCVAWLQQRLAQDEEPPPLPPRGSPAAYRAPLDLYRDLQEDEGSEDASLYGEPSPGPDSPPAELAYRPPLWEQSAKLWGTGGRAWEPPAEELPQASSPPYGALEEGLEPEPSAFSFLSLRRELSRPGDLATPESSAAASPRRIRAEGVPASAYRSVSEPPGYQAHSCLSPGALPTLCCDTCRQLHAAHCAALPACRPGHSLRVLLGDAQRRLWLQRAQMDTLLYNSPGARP

SPRY1 (Homo sapiens) = target: T4, SPRY1 (Homo sapiens) (UniProt O43609); conditions: 5' phosphate; Domain array: 20 mM Tris-HCl pH 7.4, 200 mM KCl, 0.2 mM EDTA, 0.05% NP40, 2 ug/ul heparin, overnight 4 C. ORF array: PBS pH 7.0 with RNase inhibitor, 100 ng RNA, 1 h.; recombinant protein; protein details: N-terminal GST-6xHis; label: internal DY647 at G18; letters put together from the description
T4 sequence (looked up, limits assumed): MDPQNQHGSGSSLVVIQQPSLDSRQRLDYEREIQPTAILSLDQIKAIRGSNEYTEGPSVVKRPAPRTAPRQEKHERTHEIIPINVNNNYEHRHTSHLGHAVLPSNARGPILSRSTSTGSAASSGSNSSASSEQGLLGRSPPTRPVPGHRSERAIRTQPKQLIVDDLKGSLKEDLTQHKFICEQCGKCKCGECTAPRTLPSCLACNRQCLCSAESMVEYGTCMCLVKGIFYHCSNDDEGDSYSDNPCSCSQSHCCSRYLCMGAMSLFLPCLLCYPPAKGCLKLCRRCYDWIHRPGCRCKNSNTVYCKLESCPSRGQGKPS

UBE2H (Homo sapiens) = UBE2H (Homo sapiens) (UniProt P62256); conditions: 5' phosphate; amino-C6 U at position 18; Domain array: 20 mM Tris-HCl pH 7.4, 200 mM KCl, 0.2 mM EDTA, 0.05% NP40, 2 ug/ul heparin, overnight 4 C. ORF array: PBS pH 7.0 with RNase inhibitor, 100 ng RNA, 1 h.; recombinant protein; protein details: N-terminal GST-6xHis; label: internal Cy5 or DY647
LYK5 (Homo sapiens) = target: T5, LYK5 (Homo sapiens) (UniProt Q7RTN6); conditions: 5' phosphate; amino-C6 U at position 18; Domain array: 20 mM Tris-HCl pH 7.4, 200 mM KCl, 0.2 mM EDTA, 0.05% NP40, 2 ug/ul heparin, overnight 4 C. ORF array: PBS pH 7.0 with RNase inhibitor, 100 ng RNA, 1 h.; recombinant protein; protein details: N-terminal GST-6xHis; label: internal Cy5 or DY647
T5 sequence (looked up, limits assumed): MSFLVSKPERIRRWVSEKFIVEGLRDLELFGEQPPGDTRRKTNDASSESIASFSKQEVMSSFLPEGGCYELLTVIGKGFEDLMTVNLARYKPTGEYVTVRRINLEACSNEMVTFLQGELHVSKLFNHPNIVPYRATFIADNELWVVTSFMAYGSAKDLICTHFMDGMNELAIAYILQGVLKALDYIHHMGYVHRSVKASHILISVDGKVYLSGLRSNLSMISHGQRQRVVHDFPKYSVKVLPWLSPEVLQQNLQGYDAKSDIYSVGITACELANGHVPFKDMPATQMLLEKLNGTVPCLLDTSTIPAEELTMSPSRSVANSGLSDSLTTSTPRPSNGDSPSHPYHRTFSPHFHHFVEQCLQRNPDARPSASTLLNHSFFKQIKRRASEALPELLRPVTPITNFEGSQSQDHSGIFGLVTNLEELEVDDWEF

CYCS (Homo sapiens) = CYCS (Homo sapiens) (UniProt P99999); conditions: 5' phosphate; amino-C6 U at position 18; Domain array: 20 mM Tris-HCl pH 7.4, 200 mM KCl, 0.2 mM EDTA, 0.05% NP40, 2 ug/ul heparin, overnight 4 C. ORF array: PBS pH 7.0 with RNase inhibitor, 100 ng RNA, 1 h.; recombinant protein; protein details: N-terminal GST-6xHis; label: internal Cy5 or DY647
WDR45L (Homo sapiens) = WDR45L (Homo sapiens) (UniProt Q5MNZ6); conditions: 5' phosphate; amino-C6 U at position 18; Domain array: 20 mM Tris-HCl pH 7.4, 200 mM KCl, 0.2 mM EDTA, 0.05% NP40, 2 ug/ul heparin, overnight 4 C. ORF array: PBS pH 7.0 with RNase inhibitor, 100 ng RNA, 1 h.; recombinant protein; protein details: N-terminal GST-6xHis; label: internal Cy5 or DY647

Measured: binding result

CAGUGCAAUGAUGAAAGGGCAU [miR-130b (internal labeling)]
binds: KLHDC3 (Homo sapiens) | CXorf20 (Homo sapiens) | CCNK (Homo sapiens) | TMCO5 (Homo sapiens) | FOLH1 (Homo sapiens)

UAGCUUAUCAGACUGAUGUUGA [miR-21 (internal labeling)]
binds: SPATA2L (Homo sapiens) | SPRY1 (Homo sapiens)

UGAGGUAGUAGGUUGUGUGGUU [let-7b (internal labeling)]
binds: UBE2H (Homo sapiens) | LYK5 (Homo sapiens) | CYCS (Homo sapiens) | WDR45L (Homo sapiens)
